From the supplement of paper PMC7661543
The effect of the compound repeats well; differences between the knockouts mostly do not.

What was measured:
HCC-38 = experiment: relative cell number vs DMSO control (72 h) (% of DMSO); higher = less growth inhibition (more cells)
Procedure: (§1)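 QMAP-Seq: a pool of 5 breast cancer cell lines (ZR-75-1, SKBR3, HCC-38, MDA-MB-231, BT-20), each carrying 12 doxycycline-inducible Cas9 sgRNA perturbations (11 knockouts plus non-targeting sgNT), was treated with compounds for 72 h at four 10-fold doses (10 nM-10 uM or 1 nM-1 uM range). Barcodes were amplified and sequenced, and cell number was interpolated from 293T spike-in standard curves. The result is expressed as % of the median of DMSO wells. Two biological replicates.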

MDA-MB-231 = experiment: as above
Procedure: as §1

O=C1NC(=O)/C(=C/c2ccc3nccc(-c4ccncc4)c3c2)S1
relative cell number
Details	HCC-38	MDA-MB-231
sgRNA knockout: sgATF3, 10 nM	95.13	84.5
sgRNA knockout: sgATF3, 100 nM	88.8	82.7
sgRNA knockout: sgATF3, 1000 nM	79.1	96.6
sgRNA knockout: sgATF3, 10000 nM	43.5	53
sgRNA knockout: sgATF4, 10 nM	88	93.3
sgRNA knockout: sgATF4, 100 nM	86.3	108
sgRNA knockout: sgATF4, 1000 nM	76.6	85.7
sgRNA knockout: sgATF4, 10000 nM	42.8	72.9
sgRNA knockout: sgATF6, 10 nM	96.8	92.5
sgRNA knockout: sgATF6, 100 nM	96.58	98
sgRNA knockout: sgATF6, 1000 nM	90.8	93.9
sgRNA knockout: sgATF6, 10000 nM	50.9	57.4
sgRNA knockout: sgATG7, 10 nM	91.7	87.4
sgRNA knockout: sgATG7, 100 nM	85	93
sgRNA knockout: sgATG7, 1000 nM	75.7	92.7
sgRNA knockout: sgATG7, 10000 nM	47.69	51.9
sgRNA knockout: sgERN1, 10 nM	96.4	118
sgRNA knockout: sgERN1, 100 nM	91.7	67.4
sgRNA knockout: sgERN1, 1000 nM	81.2	98.9
sgRNA knockout: sgERN1, 10000 nM	46.2	62
sgRNA knockout: sgHSF1, 10 nM	94.6	76.6
sgRNA knockout: sgHSF1, 100 nM	85.7	92.6
sgRNA knockout: sgHSF1, 1000 nM	80.6	102
sgRNA knockout: sgHSF1, 10000 nM	46.5	52.1
sgRNA knockout: sgHSF2, 10 nM	96.4	94.6
sgRNA knockout: sgHSF2, 100 nM	97.6	88
sgRNA knockout: sgHSF2, 1000 nM	78.5	87.4
sgRNA knockout: sgHSF2, 10000 nM	49.7	45.4
sgRNA knockout: sgKEAP1, 10 nM	103	111.5
sgRNA knockout: sgKEAP1, 100 nM	96.1	81.3
sgRNA knockout: sgKEAP1, 1000 nM	79.9	65.1
sgRNA knockout: sgKEAP1, 10000 nM	57.7	59.9
sgRNA knockout: sgNFE2L2, 10 nM	90	84.5
sgRNA knockout: sgNFE2L2, 100 nM	85.1	79.1
sgRNA knockout: sgNFE2L2, 1000 nM	78.8	96.6
sgRNA knockout: sgNFE2L2, 10000 nM	40.3	66.5
sgRNA knockout: sgSLC35F2, 10 nM	87.7	96.6
sgRNA knockout: sgSLC35F2, 100 nM	95.5	106
sgRNA knockout: sgSLC35F2, 1000 nM	79.4	83
sgRNA knockout: sgSLC35F2, 10000 nM	42.9	48.5
sgRNA knockout: sgXBP1, 10 nM	89.6	70.9
sgRNA knockout: sgXBP1, 100 nM	86.1	97.7
sgRNA knockout: sgXBP1, 1000 nM	80.2	83.2
sgRNA knockout: sgXBP1, 10000 nM	44.6	56.3
